Measured values taken from PubChem BioAssay AID485353 (National Center for Advancing Translational Sciences (NCATS), 2010).
The campaign covered roughly 330,000 compounds. About 610 (0.18%) were called active. The inconclusive results got no clear call from the source; some entries with a clear call stand among them for comparison. The call rests on the fitted dose curve. Potencies beside an inconclusive call are fits to weak or partial responses and may not hold up.

test: qHTS of Yeast-based Assay for SARS-CoV PLP; further: nearly all actives have a fitted effect of over 55% in size; conditions: S. cerevisiae expressing SARS-CoV PLpro; Potency: growth rescue; series mostly up to 32.9 µM
Potency means the concentration at half of the fitted maximal effect.

Structure (SMILES)	Potency
CCOc1cccc(-c2c(C(=O)N/N=C(\C)c3cccnc3)nnn2-c2nonc2N)c1	inconclusive: 3.98 µM [activator, single point]
CC(=O)N1CCN(C(=O)c2ccc(OC3CCN(CCc4ccccc4)CC3)cc2)CC1	inconclusive: 20 µM [activator, single point]
Cc1nc(SCC(=O)NCc2ccco2)c2c3c(sc2n1)CCCC3	inactive
O=S(=O)(c1cccc(S(=O)(=O)N2CCOCC2)c1)N1CCCCC1	inconclusive: 12.6 µM [activator, single point]
COc1cccc(/C=N/Nc2nc(Nc3ccc([N+](=O)[O-])cc3)nc(N3CCCC3)n2)c1O	inconclusive: 2.24 µM [activator, full curve]
COc1ccc(CCN(C)C2CCCN(C(=O)c3sccc3C)C2)cc1OC (configuration not stated)	inconclusive: 12.6 µM [activator, single point]
Cc1ccc(NC(=S)N/C(=N/S(=O)(=O)c2ccccc2)c2ccccc2)cc1	inconclusive: 10 µM [activator, partial curve]
Cc1cccc(NS(=O)(=O)c2ccc3c(c2)NC(=O)CO3)c1C	inconclusive: 12.6 µM [activator, single point]
NC(=O)C1CC=CCC1C(=O)OCC(Cl)=C(Cl)Cl (configuration not stated)	inconclusive: 10 µM [activator, single point]
CCOC(=O)C1CCN(C(=O)c2ccccc2NC(=O)C2=C(C)OCCS2)CC1	inactive
Cc1cccc(NC(=O)C2CCN(C(=O)[C@@H]3Cc4ccccc4CN3)CC2)c1	inconclusive: 3.98 µM [activator, single point]
Cc1ccc(C(=O)N2CCN(S(=O)(=O)N3CCCCC3)CC2)cc1	inconclusive: 2.82 µM [activator, single point]
Brc1ccc(C[n+]2ccccc2)cc1	inactive
CCc1nc(N)c(C#N)c(-c2ccc(O)c(OC)c2)c1C	inconclusive: 20 µM [activator, single point]
CCCCCCOC(=O)C1=C(C)NC(=O)NC1c1ccc2c(c1)OCO2 (configuration not stated)	inactive
O=C(N/N=C\c1c(O)ccc2ccccc12)c1cncc(Br)c1	inconclusive: 3.98 µM [activator, full curve]
Cc1ccc(C(=O)NNC(=O)CSc2nnc(-c3ccncc3)n2-c2ccc(C)cc2)cc1	inactive
O=C(CCc1nnc(CCCc2ccccc2)o1)NCCCC1CCCC1	inactive
CCCN1CNC(=S)N(CCc2ccccc2)C1	inconclusive: 20 µM [activator, single point]
S=C(Nc1ccc(Cl)cc1Cl)NC1CCCCC1	inconclusive: 11.2 µM [activator, partial curve]
CCC(=O)NC(Nc1ncc(C)s1)(C(=O)OC)C(F)(F)F (configuration not stated)	inconclusive: 22.4 µM [activator, partial curve]
O=C(Nc1ccc(S(=O)(=O)Nc2ccccc2F)cc1)N1CCCCC1	inconclusive: 3.98 µM [activator, partial curve]
COc1ccc(CCN(C)Cc2ccc(F)cc2F)cc1OC	inactive
O=C(O)c1ccc(/C=N/Nc2ccc(F)cc2F)cc1	inactive

Structure (SMILES)	Potency
Cc1ccc(Nc2nc3c(c(=O)[nH]2)CCCC3)cc1	inconclusive: 11.2 µM [activator, single point]
CN1CCN(S(=O)(=O)c2ccc3c(c2)CC(=O)N3C)CC1	inconclusive: 22.4 µM [activator, single point]
COc1ccc(C2C(C(=O)Nc3cccc(C)n3)CCC(=O)N2c2ccc(OC)cc2)cc1 (configuration not stated)	inconclusive: 4.47 µM [activator, single point]
Cc1nc(-c2ccccc2)nc2[nH]c(=O)n(-c3ccccc3)c(=O)c12	inactive
O=C(CSc1nnc(-c2cccc(F)c2)o1)N1CCCC1	inactive
CC(NC(=S)Nc1ccccc1)C1COc2ccccc2O1 (configuration not stated)	active: 10 µM
COc1ccc(-c2cc(=Nc3ccc(C)cc3)c3ccccc3o2)cc1	inactive
O=c1cc(O)c2c(=O)n(-c3ccccc3)c3c(c2o1)CCCCCC3	inconclusive: 4.47 µM [activator, single point]
CN(C)CCCN(C(=O)c1ccc(S(=O)(=O)N2CCCCCC2)cc1)c1nc2c(F)cc(F)cc2s1	inactive
Cc1cccc(NC(=O)CCN2CCN(C/C=C/c3ccccc3)CC2)c1	inconclusive: 14.1 µM [activator, single point]
O=C(O)c1cccc(C(=O)Cc2ccccc2)c1	inconclusive: 17.8 µM [activator, single point]
Cc1cc(C(=O)CCl)c(C)n1-c1ccon1	inconclusive: 12.6 µM [activator, partial curve]
COc1cccc(C2/C(=C(/O)c3ccccc3)C(=O)C(=O)N2Cc2ccco2)c1 (configuration not stated)	inactive
COc1ccc(C(=O)Nc2ccc(Cl)c(S(=O)(=O)Nc3ccccc3OC)c2)cc1	inconclusive: 20 µM [activator, single point]
COC(=O)c1ccc2[nH]c3c(c2c1)CC(C)CC3 (configuration not stated)	inactive
O=C(c1nc2ccc(Cl)cn2c1CN1CCC[C@H]1CO)N1CCCCCCC1	inconclusive: 2.24 µM [activator, full curve]
CC(=O)c1ccc(NC(=O)COC(=O)c2ccccc2Sc2ccccc2C#N)cc1	inconclusive: 1 µM [activator, partial curve]
O=C(Nc1ccc(C(F)(F)F)cc1-c1ccccc1)c1ccccc1	inconclusive: 2.24 µM [activator, partial curve]
COc1ccc(CCN(C)CCCC(C#N)(c2cc(OC)c(OC)c(OC)c2)C(C)C)cc1OC (configuration not stated)	inactive
CCc1nc(Cl)c(C#N)c2c1CCCC2	active: 3.98 µM
O=C(CCCn1cncn1)N1CCCC(N2CCN(c3ccccc3F)CC2)C1 (configuration not stated)	inconclusive: 15.8 µM [activator, single point]
CCOC(=O)N1CCN(C(=O)CN(C2CCCCC2)S(=O)(=O)c2c(C)cc(C)cc2C)CC1	inactive
COc1cc(NC(=S)N2CCC(C(O)(c3ccccc3)c3ccccc3)CC2)cc(OC)c1	inactive

Filtered by structure: the compounds so far containing an NH in an aromatic ring.
Structure (SMILES)	Potency
Cc1ccc(Nc2nc3c(c(=O)[nH]2)CCCC3)cc1	inconclusive: 11.2 µM [activator, single point]
Cc1nc(-c2ccccc2)nc2[nH]c(=O)n(-c3ccccc3)c(=O)c12	inactive
COC(=O)c1ccc2[nH]c3c(c2c1)CC(C)CC3 (configuration not stated)	inactive
